Assay results as given in PubChem BioAssay AID624261 (National Center for Advancing Translational Sciences (NCATS), 2012).
The shares of active, inactive and inconclusive entries below differ from those in the screen. Potencies of inconclusive entries are doubtful fits and often do not repeat. The source made the active and inactive calls. Calls come from the whole dose curve.

By UniProt entry, the sequences of proteins in these tests, tags left out. Where a name states a change or a piece, a line headed by the entry shows the natural chain unless it says otherwise.
UniProt O94925: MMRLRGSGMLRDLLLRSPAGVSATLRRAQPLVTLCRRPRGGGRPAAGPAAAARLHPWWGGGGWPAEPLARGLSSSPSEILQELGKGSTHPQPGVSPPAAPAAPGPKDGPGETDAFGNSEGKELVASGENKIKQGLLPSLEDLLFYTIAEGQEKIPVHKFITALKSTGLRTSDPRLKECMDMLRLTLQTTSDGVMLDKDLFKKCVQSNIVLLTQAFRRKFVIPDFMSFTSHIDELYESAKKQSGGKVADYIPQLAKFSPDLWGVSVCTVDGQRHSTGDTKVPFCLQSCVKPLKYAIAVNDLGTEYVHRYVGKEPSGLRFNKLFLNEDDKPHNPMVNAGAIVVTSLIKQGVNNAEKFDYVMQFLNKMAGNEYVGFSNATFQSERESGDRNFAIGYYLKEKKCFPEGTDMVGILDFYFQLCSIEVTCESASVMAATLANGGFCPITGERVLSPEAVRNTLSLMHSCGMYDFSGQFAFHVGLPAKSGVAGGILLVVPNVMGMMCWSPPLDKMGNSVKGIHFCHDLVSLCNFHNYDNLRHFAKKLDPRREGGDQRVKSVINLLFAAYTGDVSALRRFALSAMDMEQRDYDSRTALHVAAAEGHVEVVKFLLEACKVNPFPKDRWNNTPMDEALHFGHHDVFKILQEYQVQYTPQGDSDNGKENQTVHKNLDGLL

Target: Glutaminase kidney isoform, mitochondrial (Homo sapiens) (UniProt O94925)
Test: qHTS for Inhibitors of Glutaminase (GLS): Hit Confirmation
Conditions: biochemical glutaminase enzyme inhibition assay; series mostly up to 46.1 µM; activity change, negative = inhibition: at the top concentration
Description: Glutaminase (GLS) catalyzes the hydrolysis of glutamine into glutamate and ammonia. It plays a critical role in glutaminolysis, which is an important energy source for proliferating cells. It was shown that c-Myc, an oncogenic transcription factor known to regulate microRNAs and to stimulate cell proliferation, increases glutamine metabolism by stimulating the expression of GLS via direct suppression of miR23a and miR23b.
GLS is also thought to play a pathogenic role on HAD using a human HIV-1 infected macrophage system. […] GLS inhibition limits glutamate release and provides neuroprotection against HIV-1 infected macrophages.
The overall goal of this project is to identify small molecule inhibitors of GLS through quantitative high throughput screening (qHTS) of the MLSMR. A validated potent and selective inhibitor can be used as a tool molecule to further study the pharmacology of its target as well as explore its potential therapeutic application in cancer and inflammatory neurological disorders, such as HIV1-associated dementia (HAD) and multiple sclerosis. This is the hit confirmation in the primary assay data.
NIH Chemical Genomics Center [NCGC]
NIH Molecular Libraries Probe Centers Network [MLPCN]
Assay Submitter (PI): Barbara S. Slusher, Johns Hopkins University
Three 3 uL of hKGA is dispensed into black well 1536-well plates in 45 mM KH2PO4 (pH 8.2), 0.02% Tween-20. Then 23 nL of compounds are added through pin tool transfer. To this, 1 uL of 1mM L-Glutamine and 1 uL of a solution of L-Glutamateoxidase, HRP, Amplex red are added. Plate is centrifuged for 25 sec before an initial fluorescence read is obtained on the ViewLux, after 30 min of RT incubation, the final read is taken on the ViewLux.

| SMILES | Potency | activity change, negative = inhibition |
| --- | --- | --- |
| Cc1oc2c(cc(NS(=O)(=O)c3ccc(Cl)cc3)c3ccccc32)c1C(=O)O | inconclusive: 20.6 µM [inhibitor, single point] |  |
| COc1ccc(NS(=O)(=O)c2ccc3c(c2)[C@H]2C=CC[C@H]2[C@@H](c2ccc(C(=O)O)cc2)N3)cc1 | active: 3.26 µM |  |
| Cc1ccc(NS(=O)(=O)c2cc(C(=O)O)ccc2Cl)cc1 | inconclusive: 16.4 µM [inhibitor, single point] |  |
| COc1cc(OC)c(S(=O)(=O)Nc2ccccc2C(=O)O)cc1S(=O)(=O)Nc1ccccc1C(=O)O | active: 5.8 µM |  |
| CCOC(=O)CC(NS(=O)(=O)c1ccc2[nH]cc(C(=O)O)c(=O)c2c1)c1ccc(OCC)c(OC)c1 (stereo not drawn) | active: 20.6 µM |  |
| O=C(O)c1ccccc1NS(=O)(=O)c1cccc(NS(=O)(=O)c2cc(Br)ccc2Br)c1 | inconclusive: 20.6 µM [inhibitor, single point] |  |
| COc1ccccc1NS(=O)(=O)c1ccc(O)c(NC(=S)NCC2CCCO2)c1 (stereo not drawn) |  | inactive: 12% |
| COc1ccc(OC)c(S(=O)(=O)Nc2cccc3ccc(O)cc23)c1 |  | inactive: 1.42% |
| Cc1ccc(C)c(S(=O)(=O)Nc2ccc3oc(C)c(C(=O)O)c3c2)c1 | inconclusive: 16.4 µM [inhibitor, partial curve] |  |
| Cc1ccc(S(=O)(=O)Nc2cc(C)c(O)c(Sc3n[nH]c(C)n3)c2)cc1 | inconclusive: 29.1 µM [inhibitor, single point] |  |
| O=S(=O)(Nc1ccccc1O)c1cccc2cccnc12 |  | inactive: -2.87% |
| Cc1ccc(S(=O)(=O)Nc2ccccc2/C=N/c2nc3ccccc3n2C)cc1 | inconclusive: 18.4 µM [inhibitor, single point] |  |
| O=C(O)c1ccc(S(=O)(=O)Nc2ccc(O)c(Sc3nc4ccccc4s3)c2)cc1 | inconclusive: 29.1 µM [inhibitor, single point] |  |
| Cc1ccc(S(=O)(=O)Nc2cc(Cl)c(O)c3ncccc23)cc1 | inconclusive: 32.6 µM [inhibitor, single point] |  |
| COc1ccccc1NC(=O)c1cc(S(=O)(=O)NCc2ccccc2)ccc1F |  | inactive: 5.58% |
| NS(=O)(=O)c1ccc(CNS(=O)(=O)c2cc(C(=O)O)ccc2Cl)cc1 | active: 5.8 µM |  |
| CN1C(=O)c2cccc3c(S(=O)(=O)Nc4ccc(O)c(C(=O)O)c4)ccc1c23 | inconclusive: 29.1 µM [inhibitor, single point] |  |
| COc1ccc(OC)c(S(=O)(=O)Nc2ccccc2O)c1 | inconclusive: 29.1 µM [inhibitor, partial curve, poor fit] |  |
| O=C(O)c1ccccc1NS(=O)(=O)c1cccc(-n2sc3ccccc3c2=O)c1 | active: 5.17 µM |  |
| O=C(Nc1ccccc1O)c1cccc(S(=O)(=O)Nc2ccccc2O)c1 | inconclusive: 29.1 µM [inhibitor, partial curve, poor fit] |  |
| O=C(O)/C=C/c1ccc(S(=O)(=O)Nc2ccc3[nH]c(=O)[nH]c3c2)cc1 |  | inactive: 0.523% |
| O=C(O)c1cccc(S(=O)(=O)Nc2ccc(O)cc2Sc2nc3ccccc3s2)c1 | inconclusive: 29.1 µM [inhibitor, single point] |  |
| Cc1ccc(S(=O)(=O)Nc2ccc(O)c3ccccc23)c(C)c1 | inconclusive: 32.6 µM [inhibitor, partial curve, poor fit] |  |

2 entries from above, tab-delimited.
SMILES	Potency	activity change, negative = inhibition
Cc1ccc(S(=O)(=O)Nc2cc(Cl)c(O)c3ncccc23)cc1	inconclusive: 32.6 µM [inhibitor, single point]	
COc1ccccc1NC(=O)c1cc(S(=O)(=O)NCc2ccccc2)ccc1F		inactive: 5.58%
